Results: patent publication US20150031734A1, “PHARMACEUTICAL COMPOSITION CONTAINING MIRABEGRON” (ASTELLAS PHARMA INC., priority 2012, published 2015)
Some entries share one result that the patent states for a list of compounds. For at least one compound, name, drawing or mass did not settle the structure.

Test: Dissolution test, paddle method, JP2, 150 rpm, Experimental Example 2
Format: physicochemical
Conditions: 900 mL JP2, paddle 150 rpm, 25 mg as mirabegron, FIG. 1

Row | SMILES | Dissolution rate
1 | CCCCCCCCCCCCCCCCOS(=O)(=O)O.CCCCCCCCCCCCCCCCOS(=O)(=O)O.Nc1nc(CC(=O)Nc2ccc(CCNC[C@H](O)c3ccccc3)cc2)cs1 [Example 3] | unexpectedly reduced in comparison with mirabegron
2 | CCCCCCCCCCCCCCOS(=O)(=O)O.CCCCCCCCCCCCCCOS(=O)(=O)O.Nc1nc(CC(=O)Nc2ccc(CCNC[C@H](O)c3ccccc3)cc2)cs1 [Example 2] | unexpectedly reduced in comparison with mirabegron
